Results are given in words; binding and its absence hold for the method and conditions named. Binding seen in cells or lysates may run through a third protein. Here binding means that the protein was enriched with, or labelled near, the bait; the list need not be complete. Tags and fused reporters may be left off the sequences shown.
Molecular target: T1, FKBP39 N-terminal half (amino acids 1-150) C-terminally tagged with protein A (Drosophila melanogaster) (UniProt P54397)
T1 sequence: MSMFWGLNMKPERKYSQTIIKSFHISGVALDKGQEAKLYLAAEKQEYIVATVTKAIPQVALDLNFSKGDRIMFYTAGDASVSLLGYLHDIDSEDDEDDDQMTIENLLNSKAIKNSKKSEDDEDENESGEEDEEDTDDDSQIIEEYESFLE
Test: affinity purification with mass spectrometry; protein-A-tagged bait expressed in Drosophila D.Mel-2 cells; cleared lysates bound to rabbit IgG DynaBeads, washed, eluted with 0.5 M NH4OH; SDS-PAGE and LC-MS/MS

B1: endogenous full-length FKBP39 (protein, UniProt P54397 1-357)
chain: MSMFWGLNMKPERKYSQTIIKSFHISGVALDKGQEAKLYLAAEKQEYIVATVTKAIPQVALDLNFSKGDRIMFYTAGDASVSLLGYLHDIDSEDDEDDDQMTIENLLNSKAIKNSKKSEDDEDENESGEEDEEDTDDDSQIIEEYESFLENGEEEDDDDVDEDNEESGEEDEQDSDDSEAEEEQPKAKVAKLSPGASAKKSGKEQNGVAKKEEAKQQQKKKEKPEAKKEQPKAKEPAKQQPASKDPRTITGGVKIVDQVVGKGEEAKQGKRVSVYYIGRLQSNNKTFDSLLKGKPFKFALGGGEVIKGWDVGVAGMKVGGKRVITCPPHMAYGARGAPPKIGPNSTLVFEVELKAVH
- binding: binds

Source: publication PMC4414354, “The Pentameric Nucleoplasmin Fold Is Present in Drosophila FKBP39 and a Large Number of Chromatin-Related Proteins” (Journal of Molecular Biology, 2015)
